Assay results published in PMC5541716.
Results are given in words; binding and its absence hold for the method and conditions named. In cells and extracts the contact can be indirect. Some binding calls cover weakened binding; strength is not graded here.

Sequences of proteins named here, by UniProt entry; tags and fusion partners are left off.
UniProt P54098: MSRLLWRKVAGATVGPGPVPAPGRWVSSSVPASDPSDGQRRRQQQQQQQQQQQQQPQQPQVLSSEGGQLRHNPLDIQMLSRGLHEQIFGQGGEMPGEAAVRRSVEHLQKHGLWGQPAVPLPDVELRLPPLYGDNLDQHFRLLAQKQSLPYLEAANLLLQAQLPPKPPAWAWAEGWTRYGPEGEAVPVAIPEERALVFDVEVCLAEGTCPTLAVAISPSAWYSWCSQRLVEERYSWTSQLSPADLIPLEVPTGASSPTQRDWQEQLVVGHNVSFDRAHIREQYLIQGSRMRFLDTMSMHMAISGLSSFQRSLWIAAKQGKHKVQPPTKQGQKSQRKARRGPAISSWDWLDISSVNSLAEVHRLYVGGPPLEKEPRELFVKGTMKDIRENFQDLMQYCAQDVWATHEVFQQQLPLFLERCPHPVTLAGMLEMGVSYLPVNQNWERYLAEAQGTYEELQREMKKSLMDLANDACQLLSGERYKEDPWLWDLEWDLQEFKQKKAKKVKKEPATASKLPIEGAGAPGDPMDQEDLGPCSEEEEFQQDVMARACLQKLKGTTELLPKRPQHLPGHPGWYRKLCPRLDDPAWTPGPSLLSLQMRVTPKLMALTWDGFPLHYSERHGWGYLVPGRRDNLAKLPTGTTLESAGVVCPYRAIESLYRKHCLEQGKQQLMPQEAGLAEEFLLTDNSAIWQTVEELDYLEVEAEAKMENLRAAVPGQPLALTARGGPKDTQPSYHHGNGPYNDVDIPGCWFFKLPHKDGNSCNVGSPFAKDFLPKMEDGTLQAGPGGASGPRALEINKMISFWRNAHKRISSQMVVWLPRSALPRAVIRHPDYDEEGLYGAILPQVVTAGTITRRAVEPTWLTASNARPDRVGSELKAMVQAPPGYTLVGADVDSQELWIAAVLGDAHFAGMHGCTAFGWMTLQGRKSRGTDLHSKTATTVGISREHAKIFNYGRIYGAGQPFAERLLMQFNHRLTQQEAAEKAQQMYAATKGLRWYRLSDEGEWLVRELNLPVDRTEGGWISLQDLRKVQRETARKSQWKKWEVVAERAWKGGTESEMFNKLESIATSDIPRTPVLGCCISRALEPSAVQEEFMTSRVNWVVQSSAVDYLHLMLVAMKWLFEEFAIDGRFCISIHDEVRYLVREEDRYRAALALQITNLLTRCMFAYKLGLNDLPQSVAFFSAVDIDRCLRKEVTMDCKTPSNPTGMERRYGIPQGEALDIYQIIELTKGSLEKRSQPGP

Target: histone H2A member X (H2AX), endogenous in HepG2 cells (human (endogenous in HepG2)) (UniProt P16104)
Assay: co-IP; HepG2 cells overexpressing ASPH or control vector; immunoprecipitation with H2AX antibody, immunoblot with ASPH, POLG and mTFA antibodies

With “DNA polymerase gamma (POLG), endogenous in HepG2 cells (from UniProt P54098 1-1239) (enzyme)” the binding was “binds”.
